According to patent US20150320704A1, “COMPOSITIONS AND METHODS FOR TREATMENT OF HAIR LOSS” (DS Healthcare Group, Inc., priority 2014, published 2015):
For at least one compound, name, drawing or mass did not settle the structure.

System: male subjects experiencing active thinning-hair
Assay: Hair regrowth study, double blind, daily topical application for 90 days
Type: in vivo, human
Details: Example 3: study of Example 1 repeated, formulation of vehicle and a potassium channel opening agent other than pimarene compounds
Protocol: A double blind study was performed on male subjects between the ages of 25 and 55 years who had been experiencing active thinning-hair. […] A global photograph of each subject was taken from the crown area and a second photograph was taken of the top of the head to track frontal areas. […] In addition to the pimarene compounds, the formulations contained pine resin compounds that are not calcium channel opening agents, including abietic acid, neoabietic acid, dehydroabietic acid, and palustric acid. The target sites of each subject were monitored over the 90 day period and photographs were again obtained at the end of this period and compared to those at baseline.
The formulation lacks a pine resin compound other than a pimarene compound.

CCOC(=O)Nc1ccc(NCc2ccc(F)cc2)cc1N [retigabine] was tested, and the “hair thickness and growth, outcome of treatment” value was “improvement in hair thickness and growth in a majority of the subjects”.
